Data as given in patent publication US20240343732A1, “COMPOUNDS FOR DEGRADATION OF CYCLIN-DEPENDENT KINASE 7(CDK7)” (QURIENT CO., LTD., priority 2021, published 2024).
Some entries share one result that the patent states for a list of compounds.

Protein sequences, listed by entry. Tags and fused reporters are not part of them. Lines headed by an entry give the natural chain unless they say otherwise; changes in a name come on top.
UniProt P50613: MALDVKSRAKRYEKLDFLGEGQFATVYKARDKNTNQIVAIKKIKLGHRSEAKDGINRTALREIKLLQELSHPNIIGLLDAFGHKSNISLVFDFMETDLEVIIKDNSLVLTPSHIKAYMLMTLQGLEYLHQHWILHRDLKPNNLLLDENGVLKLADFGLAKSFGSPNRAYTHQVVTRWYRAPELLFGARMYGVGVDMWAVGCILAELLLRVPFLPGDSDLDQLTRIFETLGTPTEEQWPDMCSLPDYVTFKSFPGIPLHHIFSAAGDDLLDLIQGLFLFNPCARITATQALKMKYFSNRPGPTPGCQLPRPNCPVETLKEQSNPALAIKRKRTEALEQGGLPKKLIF

Target: T1, CDK7 protein (Homo sapiens, UniProt P50613)
T1 construct: To verify endogenous CDK7 protein degradation; endogenous in cells; host or cells: A2780 (ECACC 93112519)
Assay: Western blot assay for CDK7 protein degradation in A2780 cells;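 further: A is DC50 up to 100 nM B is 100 to 1000 nM C is above 1000 nM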
Format: cell-based
Details: 24 hours, read-out: Compound concentration that caused 50% CDK7 protein degradation in A2780 cells (DC50)
Description: Human ovarian cancer cell line, A2780 (Cat #93112519) was obtained from ECACC. Cells were grown in RPMI-1640 media (Invitrogen, Cat #22400105) supplemented with 10% FBS (Hyclone, Cat #SH30084.03) and 1% penicillin/streptomycin (Hyclone, Cat #SV30010) and cultured at 37° C., 5% Co2 in a humidified chamber. All cell lines were routinely tested for mycoplasma.
To verify endogenous CDK7 protein degradation upon treatment of CDK7-specific degrader, the western blot assay was conducted a 24 hours' time period. 6×10^5 cells/well of A2780 cells were plated in 6-well plate. After 24 hours, the cells were treated with various concentrations of the compound corresponding range. DMSO solvent without compound served as a control and final DMSO concentration was not to exceed 0.1% of total volume. After 24 hours of incubation at 37° C., 5% Co2 incubator, cells were collected and lysed with 60 ul of lysis buffer. Collected lysates were incubated for 30 min on ice and collect supernatant through centrifugation at 12,000 rpm for 10 min at 4° C. The protein in lysates were quantified with BCA protein quantification kit (Pierce, Cat #23227) following manufacture's protocol. Cell lysates were diluted into 1 ug/ul of concentration with lysis buffer. 20 ug of protein was loaded to each well of 4˜12% Bis-Tris gel (Invitrogen, Cat #NP0336BOX) with MOPS running buffer (Invitrogen, Cat #NP0001). […]

In the case of `CC(C)c1cnn2c(NCc3ccccc3-c3nccc4cc(NCCOCCOCCOCCNC(=O)CNc5cccc6c5C(=O)N(C5CCC(=O)NC5=O)C6=O)ccc34)nc(O[C@@H]3CCCNC3)nc12` (stereo partly shown) [Compound 8], the DC50 is reported as at most 100 nM.
